Data on one molecule can be found in paper doi:10.1101/2023.06.01.543131.

The chains behind the UniProt entries cited, without tags or fusion partners.
UniProt P60484: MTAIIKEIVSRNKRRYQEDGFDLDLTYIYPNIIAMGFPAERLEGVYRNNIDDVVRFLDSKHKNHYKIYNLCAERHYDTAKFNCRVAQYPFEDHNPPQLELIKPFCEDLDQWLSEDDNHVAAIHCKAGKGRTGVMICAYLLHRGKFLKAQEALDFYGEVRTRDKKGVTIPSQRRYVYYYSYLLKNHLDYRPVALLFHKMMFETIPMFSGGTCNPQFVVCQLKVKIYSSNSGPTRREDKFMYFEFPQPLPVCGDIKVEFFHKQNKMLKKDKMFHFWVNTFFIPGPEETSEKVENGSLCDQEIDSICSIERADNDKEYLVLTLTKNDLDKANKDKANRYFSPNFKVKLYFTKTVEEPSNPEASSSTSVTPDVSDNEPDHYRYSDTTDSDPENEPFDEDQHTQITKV

No constants are given. Whether binding was seen depends on the method and setting. In cells and extracts the contact can be indirect.

The assay deals with PTEN (human (endogenous in A375)) (UniProt P60484). The assay can be described thus: co-IP.

B1: FRA1 (protein, UniProt P15407 1-271)
chain: MFRDFGEPGPSSGNGGGYGGPAQPPAAAQAAQQKFHLVPSINTMSGSQELQWMVQPHFLGPSSYPRPLTYPQYSPPQPRPGVIRALGPPPGVRRRPCEQISPEEEERRRVRRERNKLAAAKCRNRRKELTDFLQAETDKLEDEKSGLQREIEELQKQKERLELVLEAHRPICKIPEGAKEGDTGSTSGTSSPPAPCRPVPCISLSPGPVLEPEALHTPTLMTTPSLTPFTPSLVFTYPSTPEPCASAHRKSSSSSGDPSSDPLGSPTLLAL
For B1, the binding entry is “no binding”.
